Protein sequences, listed by entry. Tags and fused reporters are not part of them. Lines headed by an entry give the natural chain unless they say otherwise; changes in a name come on top.
UniProt Q14247: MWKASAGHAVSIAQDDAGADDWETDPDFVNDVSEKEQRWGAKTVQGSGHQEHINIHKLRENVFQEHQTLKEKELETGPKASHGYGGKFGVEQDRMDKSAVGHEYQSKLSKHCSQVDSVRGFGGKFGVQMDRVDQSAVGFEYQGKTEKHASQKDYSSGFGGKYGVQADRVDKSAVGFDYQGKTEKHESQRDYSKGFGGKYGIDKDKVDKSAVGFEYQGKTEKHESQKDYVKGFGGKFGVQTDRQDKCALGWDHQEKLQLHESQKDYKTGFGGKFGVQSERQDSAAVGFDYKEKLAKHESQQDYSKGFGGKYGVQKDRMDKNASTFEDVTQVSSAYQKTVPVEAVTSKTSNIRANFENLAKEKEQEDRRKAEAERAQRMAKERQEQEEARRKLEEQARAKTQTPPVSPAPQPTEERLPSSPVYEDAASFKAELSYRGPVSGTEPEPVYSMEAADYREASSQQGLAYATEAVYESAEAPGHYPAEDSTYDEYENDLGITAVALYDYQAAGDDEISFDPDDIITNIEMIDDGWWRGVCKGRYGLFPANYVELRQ
UniProt O00213: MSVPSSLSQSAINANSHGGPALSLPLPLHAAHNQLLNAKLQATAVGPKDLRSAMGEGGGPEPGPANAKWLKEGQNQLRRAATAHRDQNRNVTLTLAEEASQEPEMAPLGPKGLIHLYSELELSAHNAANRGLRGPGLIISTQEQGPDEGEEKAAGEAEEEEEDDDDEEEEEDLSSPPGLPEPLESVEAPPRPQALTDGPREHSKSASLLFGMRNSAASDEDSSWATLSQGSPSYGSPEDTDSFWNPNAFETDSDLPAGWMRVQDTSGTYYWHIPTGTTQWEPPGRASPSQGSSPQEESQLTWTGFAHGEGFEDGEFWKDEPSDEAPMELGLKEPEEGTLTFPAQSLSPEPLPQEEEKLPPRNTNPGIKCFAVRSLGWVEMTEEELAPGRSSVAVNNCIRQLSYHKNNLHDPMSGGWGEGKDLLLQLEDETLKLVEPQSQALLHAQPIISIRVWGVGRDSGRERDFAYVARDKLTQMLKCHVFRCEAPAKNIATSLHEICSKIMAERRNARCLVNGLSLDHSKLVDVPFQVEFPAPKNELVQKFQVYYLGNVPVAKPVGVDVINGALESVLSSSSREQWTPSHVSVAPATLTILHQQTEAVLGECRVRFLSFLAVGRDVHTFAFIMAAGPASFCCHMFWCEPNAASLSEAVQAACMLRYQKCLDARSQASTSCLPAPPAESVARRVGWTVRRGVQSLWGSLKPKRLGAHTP

In article PMC4499803:

These substances were tested against Flag-tagged cortactin (UniProt Q14247) (assay: co-IP; 293T cells co-transfected with Flag-cortactin and Myc-Fe65 or deletion constructs; cellular extracts (20 mM Tris-HCl pH 7.5, 150 mM NaCl, 1 mM EDTA, 1% NP-40) incubated with anti-Flag beads overnight at 4 °C; immunoblot).
“Myc-Fe65 mutant with the WW domain deleted (from UniProt O00213)” was tested, and the binding was “binds”. “Myc-Fe65 mutant with the PTB1 domain deleted (from UniProt O00213)” was tested, and the binding was “no binding”. In the case of “Myc-Fe65 mutant with the PTB2 domain deleted (from UniProt O00213)”, the binding is reported as “binds”.

These are yes or no findings as the source states them, for the method shown. In cells and extracts the contact can be indirect. Binding calls can cover weak binding; strength is not graded here.
